Experimental data reported in the supplement of paper PMC12595434, “Development of retinoid nuclear receptor pathway antagonists through targeting aldehyde dehydrogenase 1A3” (iScience, 2025).
The other results are listed elsewhere or left out. The data scatter; read single values as rough.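 Tm was set to 64 °C where no melting was found, and many curves are irregular.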

Protein sequences, listed by entry. Tags and fused reporters are not part of them. Lines headed by an entry give the natural chain unless they say otherwise; changes in a name come on top.
UniProt Q9UDY2: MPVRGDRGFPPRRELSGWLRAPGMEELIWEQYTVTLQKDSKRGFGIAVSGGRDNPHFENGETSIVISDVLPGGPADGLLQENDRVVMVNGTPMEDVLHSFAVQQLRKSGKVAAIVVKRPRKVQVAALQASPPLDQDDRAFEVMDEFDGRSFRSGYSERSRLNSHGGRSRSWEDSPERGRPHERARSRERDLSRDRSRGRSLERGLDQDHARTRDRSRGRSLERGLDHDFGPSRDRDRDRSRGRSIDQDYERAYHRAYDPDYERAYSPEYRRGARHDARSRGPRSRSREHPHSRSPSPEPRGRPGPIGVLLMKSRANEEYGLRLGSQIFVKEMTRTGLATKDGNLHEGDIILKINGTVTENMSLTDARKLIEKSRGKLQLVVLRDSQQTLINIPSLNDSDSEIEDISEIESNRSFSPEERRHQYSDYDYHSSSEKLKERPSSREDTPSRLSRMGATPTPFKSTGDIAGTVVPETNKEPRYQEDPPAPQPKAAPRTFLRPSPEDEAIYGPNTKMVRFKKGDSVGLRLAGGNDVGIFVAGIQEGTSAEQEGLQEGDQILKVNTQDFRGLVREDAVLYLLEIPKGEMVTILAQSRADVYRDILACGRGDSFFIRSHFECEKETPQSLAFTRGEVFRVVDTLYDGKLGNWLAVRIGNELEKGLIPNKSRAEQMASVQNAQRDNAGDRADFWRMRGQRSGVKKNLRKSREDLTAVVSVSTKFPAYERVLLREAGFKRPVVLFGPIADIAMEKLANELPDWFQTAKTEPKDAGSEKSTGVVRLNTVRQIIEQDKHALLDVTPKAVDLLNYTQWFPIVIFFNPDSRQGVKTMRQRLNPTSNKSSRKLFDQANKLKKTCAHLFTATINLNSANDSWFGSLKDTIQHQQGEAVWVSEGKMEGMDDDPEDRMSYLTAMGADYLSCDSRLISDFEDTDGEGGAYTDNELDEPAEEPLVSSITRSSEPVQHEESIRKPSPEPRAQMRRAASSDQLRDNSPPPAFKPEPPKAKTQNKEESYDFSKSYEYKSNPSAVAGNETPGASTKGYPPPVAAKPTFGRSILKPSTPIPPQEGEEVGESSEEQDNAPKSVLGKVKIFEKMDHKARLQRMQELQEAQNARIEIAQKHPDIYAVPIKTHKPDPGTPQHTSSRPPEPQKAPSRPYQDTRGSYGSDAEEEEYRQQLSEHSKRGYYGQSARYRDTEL
UniProt Q9NVM1: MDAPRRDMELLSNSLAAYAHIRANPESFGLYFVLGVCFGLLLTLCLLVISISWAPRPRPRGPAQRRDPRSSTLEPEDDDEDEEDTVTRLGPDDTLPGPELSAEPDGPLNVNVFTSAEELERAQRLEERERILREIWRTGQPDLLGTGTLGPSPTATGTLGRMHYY
UniProt Q9NZI6: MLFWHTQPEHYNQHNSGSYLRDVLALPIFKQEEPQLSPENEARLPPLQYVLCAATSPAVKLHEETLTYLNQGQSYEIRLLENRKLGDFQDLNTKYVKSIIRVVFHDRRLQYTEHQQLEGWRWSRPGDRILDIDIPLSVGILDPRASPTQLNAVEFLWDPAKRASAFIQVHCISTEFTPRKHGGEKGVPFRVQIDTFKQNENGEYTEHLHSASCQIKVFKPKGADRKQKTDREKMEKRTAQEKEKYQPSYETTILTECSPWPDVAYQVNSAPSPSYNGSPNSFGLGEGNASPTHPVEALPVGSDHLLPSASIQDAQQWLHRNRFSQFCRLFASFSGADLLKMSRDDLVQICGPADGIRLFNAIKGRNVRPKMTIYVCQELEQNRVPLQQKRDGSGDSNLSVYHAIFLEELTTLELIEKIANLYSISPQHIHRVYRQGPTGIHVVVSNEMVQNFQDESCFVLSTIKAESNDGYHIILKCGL
UniProt Q9P2M7: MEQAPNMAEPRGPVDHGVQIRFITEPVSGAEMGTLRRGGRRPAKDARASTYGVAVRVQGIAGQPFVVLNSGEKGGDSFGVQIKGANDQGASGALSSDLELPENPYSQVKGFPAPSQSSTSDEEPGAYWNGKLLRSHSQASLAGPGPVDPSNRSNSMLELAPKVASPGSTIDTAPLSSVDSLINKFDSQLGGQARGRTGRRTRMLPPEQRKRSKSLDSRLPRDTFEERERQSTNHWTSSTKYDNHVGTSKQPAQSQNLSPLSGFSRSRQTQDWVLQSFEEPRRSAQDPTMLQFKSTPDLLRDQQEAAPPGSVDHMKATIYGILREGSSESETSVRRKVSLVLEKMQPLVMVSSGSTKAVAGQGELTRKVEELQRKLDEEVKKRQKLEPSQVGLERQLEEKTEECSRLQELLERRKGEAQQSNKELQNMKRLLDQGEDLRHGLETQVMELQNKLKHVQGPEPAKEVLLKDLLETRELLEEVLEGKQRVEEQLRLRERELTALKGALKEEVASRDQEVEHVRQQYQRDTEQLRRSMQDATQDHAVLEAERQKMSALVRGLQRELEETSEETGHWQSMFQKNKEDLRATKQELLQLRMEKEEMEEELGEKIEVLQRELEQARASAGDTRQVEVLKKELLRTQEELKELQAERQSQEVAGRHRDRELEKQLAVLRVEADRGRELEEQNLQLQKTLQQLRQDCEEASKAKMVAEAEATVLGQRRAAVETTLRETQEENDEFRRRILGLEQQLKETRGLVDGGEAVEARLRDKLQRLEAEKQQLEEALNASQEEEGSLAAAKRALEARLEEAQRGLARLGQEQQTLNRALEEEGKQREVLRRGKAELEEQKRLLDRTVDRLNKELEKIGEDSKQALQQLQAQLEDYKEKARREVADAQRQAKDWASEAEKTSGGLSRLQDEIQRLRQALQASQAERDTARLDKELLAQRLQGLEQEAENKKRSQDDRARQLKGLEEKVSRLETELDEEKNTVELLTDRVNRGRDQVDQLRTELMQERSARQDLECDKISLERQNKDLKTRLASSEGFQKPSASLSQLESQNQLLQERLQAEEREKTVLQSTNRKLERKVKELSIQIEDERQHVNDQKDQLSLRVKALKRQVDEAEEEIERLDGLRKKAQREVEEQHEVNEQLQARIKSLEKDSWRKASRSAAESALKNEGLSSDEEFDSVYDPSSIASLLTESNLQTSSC
UniProt Q9NYU1: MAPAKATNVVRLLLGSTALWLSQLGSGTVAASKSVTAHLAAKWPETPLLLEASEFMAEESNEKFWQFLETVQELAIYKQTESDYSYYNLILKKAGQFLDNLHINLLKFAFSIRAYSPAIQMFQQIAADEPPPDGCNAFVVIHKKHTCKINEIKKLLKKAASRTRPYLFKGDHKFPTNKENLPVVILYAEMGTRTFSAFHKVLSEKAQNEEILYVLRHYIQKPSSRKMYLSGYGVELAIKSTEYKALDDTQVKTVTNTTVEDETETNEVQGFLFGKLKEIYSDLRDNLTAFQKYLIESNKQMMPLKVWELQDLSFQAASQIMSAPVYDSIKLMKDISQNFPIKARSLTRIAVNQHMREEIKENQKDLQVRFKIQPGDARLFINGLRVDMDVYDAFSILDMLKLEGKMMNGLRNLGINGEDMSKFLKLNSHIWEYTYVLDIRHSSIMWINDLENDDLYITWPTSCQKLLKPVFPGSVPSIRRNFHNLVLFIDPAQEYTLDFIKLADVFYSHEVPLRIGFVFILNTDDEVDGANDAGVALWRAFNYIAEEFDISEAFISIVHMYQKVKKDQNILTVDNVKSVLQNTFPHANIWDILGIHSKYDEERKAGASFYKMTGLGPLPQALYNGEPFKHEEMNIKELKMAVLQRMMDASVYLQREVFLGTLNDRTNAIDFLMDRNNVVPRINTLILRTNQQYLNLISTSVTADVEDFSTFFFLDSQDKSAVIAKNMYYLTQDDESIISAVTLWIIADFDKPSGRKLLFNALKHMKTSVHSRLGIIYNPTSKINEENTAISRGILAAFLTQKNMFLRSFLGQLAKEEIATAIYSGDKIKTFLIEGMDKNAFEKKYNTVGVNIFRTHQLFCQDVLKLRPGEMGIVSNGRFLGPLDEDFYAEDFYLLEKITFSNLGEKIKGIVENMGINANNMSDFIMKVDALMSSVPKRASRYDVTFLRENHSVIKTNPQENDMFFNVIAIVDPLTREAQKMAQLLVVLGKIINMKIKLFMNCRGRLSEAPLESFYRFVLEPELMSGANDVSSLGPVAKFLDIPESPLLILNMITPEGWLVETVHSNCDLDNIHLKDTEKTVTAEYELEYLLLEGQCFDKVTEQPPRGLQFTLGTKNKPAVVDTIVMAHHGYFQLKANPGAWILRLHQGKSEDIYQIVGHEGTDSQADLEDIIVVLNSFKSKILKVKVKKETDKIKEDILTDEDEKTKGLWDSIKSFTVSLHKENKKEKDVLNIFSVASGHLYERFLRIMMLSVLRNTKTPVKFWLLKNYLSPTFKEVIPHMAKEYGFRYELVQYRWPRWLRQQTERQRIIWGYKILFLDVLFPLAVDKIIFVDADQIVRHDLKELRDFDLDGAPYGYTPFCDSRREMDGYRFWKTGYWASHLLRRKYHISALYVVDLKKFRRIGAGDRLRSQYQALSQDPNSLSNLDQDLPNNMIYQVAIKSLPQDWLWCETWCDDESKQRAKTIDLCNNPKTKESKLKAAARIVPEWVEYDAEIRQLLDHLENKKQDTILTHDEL
UniProt Q9NX47: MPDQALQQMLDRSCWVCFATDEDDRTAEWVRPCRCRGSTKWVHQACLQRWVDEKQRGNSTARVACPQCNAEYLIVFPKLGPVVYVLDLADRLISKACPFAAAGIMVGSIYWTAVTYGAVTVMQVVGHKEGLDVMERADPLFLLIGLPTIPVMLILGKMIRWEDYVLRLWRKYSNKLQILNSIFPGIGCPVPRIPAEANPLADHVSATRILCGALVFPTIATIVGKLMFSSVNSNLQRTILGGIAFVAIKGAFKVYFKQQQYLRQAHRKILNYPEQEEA
UniProt Q9P2K8: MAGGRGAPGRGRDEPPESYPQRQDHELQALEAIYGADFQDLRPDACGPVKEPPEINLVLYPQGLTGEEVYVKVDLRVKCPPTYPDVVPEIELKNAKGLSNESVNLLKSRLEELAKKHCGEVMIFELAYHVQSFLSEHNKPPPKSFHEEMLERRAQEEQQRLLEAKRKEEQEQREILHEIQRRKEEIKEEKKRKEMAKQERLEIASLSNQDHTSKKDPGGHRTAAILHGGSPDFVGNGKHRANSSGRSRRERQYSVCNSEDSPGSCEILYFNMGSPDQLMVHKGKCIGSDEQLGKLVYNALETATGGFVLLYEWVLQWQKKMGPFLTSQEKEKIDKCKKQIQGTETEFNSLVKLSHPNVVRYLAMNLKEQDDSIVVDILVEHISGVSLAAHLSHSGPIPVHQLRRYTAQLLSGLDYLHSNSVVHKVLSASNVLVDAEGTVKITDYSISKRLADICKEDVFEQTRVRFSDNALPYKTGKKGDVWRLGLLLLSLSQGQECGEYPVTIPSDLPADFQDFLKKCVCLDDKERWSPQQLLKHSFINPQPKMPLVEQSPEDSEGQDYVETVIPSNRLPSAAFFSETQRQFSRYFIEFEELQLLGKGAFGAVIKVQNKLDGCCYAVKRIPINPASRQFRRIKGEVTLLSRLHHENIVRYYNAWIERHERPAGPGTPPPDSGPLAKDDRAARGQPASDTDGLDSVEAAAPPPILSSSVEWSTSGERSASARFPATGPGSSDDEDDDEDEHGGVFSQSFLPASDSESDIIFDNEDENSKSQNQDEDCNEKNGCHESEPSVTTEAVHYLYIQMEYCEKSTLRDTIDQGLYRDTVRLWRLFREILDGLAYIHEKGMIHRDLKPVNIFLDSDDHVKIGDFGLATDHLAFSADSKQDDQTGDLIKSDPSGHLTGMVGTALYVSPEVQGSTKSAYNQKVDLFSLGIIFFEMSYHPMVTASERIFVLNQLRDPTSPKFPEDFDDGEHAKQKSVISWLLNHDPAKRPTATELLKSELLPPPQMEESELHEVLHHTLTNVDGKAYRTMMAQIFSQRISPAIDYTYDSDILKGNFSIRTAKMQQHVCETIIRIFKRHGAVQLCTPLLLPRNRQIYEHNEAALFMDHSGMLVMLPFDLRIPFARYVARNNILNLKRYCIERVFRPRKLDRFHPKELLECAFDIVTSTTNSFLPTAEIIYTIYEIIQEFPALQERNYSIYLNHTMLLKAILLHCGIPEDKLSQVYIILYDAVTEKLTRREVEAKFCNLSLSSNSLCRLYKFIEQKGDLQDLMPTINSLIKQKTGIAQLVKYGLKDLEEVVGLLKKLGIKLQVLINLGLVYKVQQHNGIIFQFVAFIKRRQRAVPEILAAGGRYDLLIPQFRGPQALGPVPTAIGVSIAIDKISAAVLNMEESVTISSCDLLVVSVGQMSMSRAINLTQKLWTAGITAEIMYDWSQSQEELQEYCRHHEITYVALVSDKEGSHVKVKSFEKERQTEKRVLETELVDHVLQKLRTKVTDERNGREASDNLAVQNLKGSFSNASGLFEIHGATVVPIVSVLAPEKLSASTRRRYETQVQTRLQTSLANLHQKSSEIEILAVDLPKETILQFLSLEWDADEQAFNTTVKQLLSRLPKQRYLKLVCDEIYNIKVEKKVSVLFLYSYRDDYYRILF

Compound: CCc1cnccc1C(=O)Nc1cc2c(cc1F)NC(=O)CC2
Test: melting temperature shift (DMSO Tm minus MBE1-treated Tm) in cellular thermal proteome profiling; higher = less thermal stabilization by MBE1 (negative = stabilized by MBE1)
Conditions: A375

| Target | melting temperature shift (MBE1 concentration: 100 nM) [°C] | melting temperature shift (MBE1 concentration: 1 uM) [°C] |
| --- | --- | --- |
| MORF4L1 (UniProt Q9UBU8) | 1.49 | 0.983 |
| ZMYM2 (UniProt Q9UBW7) | -0.41 | -0.442 |
| SIPA1L2 (UniProt Q9P2F8) | -1.69 | -1.6 |
| NCDN (UniProt Q9UBB6) | 0.887 | 0.0672 |
| MTCH1 (UniProt Q9NZJ7) | 0.335 | 0.161 |
| UCKL1 (UniProt Q9NWZ5) | 1.26 | 0.0855 |
| ERAP1 (UniProt Q9NZ08) | -0.979 | -0.51 |
| UniProt Q9NZM4 | 0.032 | 0.372 |
| TJP2 (UniProt Q9UDY2) | -0.626 | -1.03 |
| MAT2B (UniProt Q9NZL9) | -1.44 | 0.586 |
| C9ORF78 (UniProt Q9NZ63) | -1.62 | 1.76 |
| SH3BP4 (UniProt Q9P0V3) | -6.43 | -4.17 |
| UniProt Q9NXF7 | -0.884 | -0.783 |
| UniProt Q9NXF1 | -2.55 | -4.4 |
| TECR (UniProt Q9NZ01) | 0.581 | 0.268 |
| ANKFY1 (UniProt Q9P2R3) | 0.047 | 0.221 |
| INTS7 (UniProt Q9NVH2) | 0.342 | 1.12 |
| SUCLA2 (UniProt Q9P2R7) | 0.269 | -0.458 |
| UXT (UniProt Q9UBK9) | 1.53 | 0.0488 |
| UniProt Q9NVM1 | -5.27 | -2.14 |

| Target | melting temperature shift (MBE1 concentration: 100 nM) [°C] | melting temperature shift (MBE1 concentration: 1 uM) [°C] |
| --- | --- | --- |
| UGGT1 (UniProt Q9NYU2) | -0.926 | 0.0671 |
| EHD2 (UniProt Q9NZN4) | -0.189 | 0.0672 |
| MRPL35 (UniProt Q9NZE8) | 0.189 | 10.9 |
| UniProt Q9P2S5 | -0.385 | 2.07 |
| VAPA (UniProt Q9P0L0) | -1.05 | 0.324 |
| UniProt Q9NZI6 | -0.889 | -0.842 |
| UniProt Q9P2M7 | -1.75 | -0.624 |
| FTSJ1 (UniProt Q9UET6) | -1.07 | 0.702 |
| ZNF629 (UniProt Q9UEG4) | -4.55 | -5.72 |
| UniProt Q9NVH6 | -0.624 | -2.58 |
| UGGT2 (UniProt Q9NYU1) | -0.342 | 0.165 |
| UniProt Q9NYV4 | -0.161 | 1.01 |
| GEMIN8 (UniProt Q9NWZ8) | 2.29 | 1.06 |
| SPAST (UniProt Q9UBP0) | -0.47 | -0.0988 |
| CNOT2 (UniProt Q9NZN8) | -0.21 | 0.108 |
| UBAP1 (UniProt Q9NZ09) | -0.208 | -0.00611 |
| VPS29 (UniProt Q9UBQ0) | -1.52 | 0.318 |
| LYAR (UniProt Q9NX58) | -0.892 | 0.557 |
| UniProt Q9NWA0 | -1.35 | -4.05 |
| PAK1IP1 (UniProt Q9NWT1) | -1.07 | -1.46 |

Shown with each value named: entries from further up.
ERAP1 (UniProt Q9NZ08)
  melting temperature shift (MBE1 concentration: 100 nM) [°C]: -0.979
  melting temperature shift (MBE1 concentration: 1 uM) [°C]: -0.51
MAT2B (UniProt Q9NZL9)
  melting temperature shift (MBE1 concentration: 100 nM) [°C]: -1.44
  melting temperature shift (MBE1 concentration: 1 uM) [°C]: 0.586
UXT (UniProt Q9UBK9)
  melting temperature shift (MBE1 concentration: 100 nM) [°C]: 1.53
  melting temperature shift (MBE1 concentration: 1 uM) [°C]: 0.0488

Continuation.

| Target | melting temperature shift (MBE1 concentration: 100 nM) [°C] | melting temperature shift (MBE1 concentration: 1 uM) [°C] |
| --- | --- | --- |
| THYN1 (UniProt Q9P016) | 0.0183 | 0.641 |
| WDR70 (UniProt Q9NW82) | -1.07 | 0.0604 |
| HAUS2 (UniProt Q9NVX0) | -0.423 | 0.0047 |
| GMIP (UniProt Q9P107) | 0.585 | -0.83 |
| PEF1 (UniProt Q9UBV8) | -0.0335 | -0.174 |
| NKIRAS1 (UniProt Q9NYS0) | 0.539 | 0.71 |
| MARCH5 (UniProt Q9NX47) | 0.374 | -0.653 |
| MRPS18A (UniProt Q9NVS2) | 0.0672 | 1.27 |
| EIF2AK4 (UniProt Q9P2K8) | 0.179 | -0.0211 |
| SLTM (UniProt Q9NWH9) | -1.43 | -0.849 |
| DAXX (UniProt Q9UER7) | -0.602 | -0.404 |
| ATXN10 (UniProt Q9UBB4) | 0.147 | 0.397 |
| IRAK4 (UniProt Q9NWZ3) | 0.449 | -1.3 |
| UniProt Q9NZU5 | 0.159 | -0.293 |
| RCC2 (UniProt Q9P258) | -0.448 | 0.348 |
| FKBP14 (UniProt Q9NWM8) | -0.926 | 1.79 |
| UniProt Q9P0T4 | -1.11 | 1.12 |
| RIC8B (UniProt Q9NVN3) | 0.63 | 0.0794 |
| NDUFAF4 (UniProt Q9P032) | -0.671 | 0.531 |
| ASUN (UniProt Q9NVM9) | 0.202 | -0.171 |
